Measured values: patent EP2695891B1, “OCTAPEPTIDE, RADIOPHARMACEUTICAL AGENT BASED THEREON AND METHOD FOR DIAGNOSING TUMORS” (Aktsionernoe Obschestvo "Pharm-Sintez", priority 2011, dated 2018)
Not every detail of the peptide structures is certain; ends, links or a residue may be inferred.

System: murine melanoma B16 culture
Assay: accumulation of ^68Ga-marked compounds in tumour cells in vitro (direct radiometry)
Type: cell-based
Conditions: incubation 10, 30 and 60 minutes at 37°C

C[C@@H](O)[C@H](NC(=O)[C@@H]1CSSC[C@H](NC(=O)[C@@H](N)CCCCNC(=O)CN2CCN(CC(=O)O)CCN(CC(=O)O)CCN(CC(=O)O)CC2)C(=O)N[C@@H](Cc2ccc(O)cc2)C(=O)N[C@H](Cc2c[nH]c3ccccc23)C(=O)N[C@@H](CCCCN)C(=O)N[C@@H]([C@@H](C)O)C(=O)N1)C(=O)O [Compound 1b]
accumulation level in melanoma B16 cells compared with DE: higher than in experiments with DE
